Results reported in paper PMC7575571.

The chains behind the UniProt entries cited, without tags or fusion partners. Where a name states a change or a piece, a line headed by the entry shows the natural chain unless it says otherwise.
UniProt O81834: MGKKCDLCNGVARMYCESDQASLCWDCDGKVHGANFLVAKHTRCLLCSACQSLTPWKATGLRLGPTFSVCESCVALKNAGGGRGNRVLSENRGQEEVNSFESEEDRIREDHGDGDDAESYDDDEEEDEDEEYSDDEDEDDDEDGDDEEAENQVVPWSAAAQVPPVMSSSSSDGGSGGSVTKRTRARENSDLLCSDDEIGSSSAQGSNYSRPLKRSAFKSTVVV
UniProt Q39057: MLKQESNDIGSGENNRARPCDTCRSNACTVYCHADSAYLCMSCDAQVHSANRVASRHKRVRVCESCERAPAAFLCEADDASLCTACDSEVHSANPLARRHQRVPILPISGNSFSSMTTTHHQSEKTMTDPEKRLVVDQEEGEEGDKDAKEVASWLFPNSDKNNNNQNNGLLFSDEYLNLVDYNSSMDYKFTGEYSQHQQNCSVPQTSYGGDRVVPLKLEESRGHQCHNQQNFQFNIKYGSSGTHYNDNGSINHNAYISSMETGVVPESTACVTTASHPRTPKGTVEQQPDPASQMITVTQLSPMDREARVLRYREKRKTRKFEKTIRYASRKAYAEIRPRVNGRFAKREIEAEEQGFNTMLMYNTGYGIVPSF

Target: Nuc2-BBX28 (Arabidopsis thaliana) (UniProt O81834)
Assay: nucleolus-tethering system (NoTS); transient co-expression in tobacco (N. tabacum) leaves; bait fused to Nuc2 and held at the nucleolus, recruitment of CO to the periphery of the nucleolus seen by microscopy

binding: binds
Substance: CO as expressed in the NoTS assay (from UniProt Q39057 1-373)

No constants are given. Whether binding was seen depends on the method and setting. A result given as binding can be weak or reduced; the word gives no strength.
